Measured values as given in article PMC8635308, “Neuropilin 1 regulates bone marrow vascular regeneration and hematopoietic reconstitution” (Nature Communications, 2021).
No constants are given. Whether binding was seen depends on the method and setting. Some results given as binding are weak or reduced against the parent protein; the word gives no strength. Tags and fused reporters may be left off the sequences shown.

Assays:
[1] = molecular target: T1, C-terminal His tagged mouse NRP1 (5994-N1, R&D systems) (mouse) (UniProt P97333); assay: ELISA; sandwich ELISA; 6x His-tag microtiter plates coated with C-terminal His tagged mouse NRP1 at 50 ng/ml, 4 °C overnight; blocked with 1% BSA in PBS; SEMA3A Fc added at 0, 1, 2, 4, 8, 16, 32, 128 ng/ml for 2 h at RT; detected with HRP-conjugated SEMA3A antibody, read at 600 nm; both purified
T1 sequence: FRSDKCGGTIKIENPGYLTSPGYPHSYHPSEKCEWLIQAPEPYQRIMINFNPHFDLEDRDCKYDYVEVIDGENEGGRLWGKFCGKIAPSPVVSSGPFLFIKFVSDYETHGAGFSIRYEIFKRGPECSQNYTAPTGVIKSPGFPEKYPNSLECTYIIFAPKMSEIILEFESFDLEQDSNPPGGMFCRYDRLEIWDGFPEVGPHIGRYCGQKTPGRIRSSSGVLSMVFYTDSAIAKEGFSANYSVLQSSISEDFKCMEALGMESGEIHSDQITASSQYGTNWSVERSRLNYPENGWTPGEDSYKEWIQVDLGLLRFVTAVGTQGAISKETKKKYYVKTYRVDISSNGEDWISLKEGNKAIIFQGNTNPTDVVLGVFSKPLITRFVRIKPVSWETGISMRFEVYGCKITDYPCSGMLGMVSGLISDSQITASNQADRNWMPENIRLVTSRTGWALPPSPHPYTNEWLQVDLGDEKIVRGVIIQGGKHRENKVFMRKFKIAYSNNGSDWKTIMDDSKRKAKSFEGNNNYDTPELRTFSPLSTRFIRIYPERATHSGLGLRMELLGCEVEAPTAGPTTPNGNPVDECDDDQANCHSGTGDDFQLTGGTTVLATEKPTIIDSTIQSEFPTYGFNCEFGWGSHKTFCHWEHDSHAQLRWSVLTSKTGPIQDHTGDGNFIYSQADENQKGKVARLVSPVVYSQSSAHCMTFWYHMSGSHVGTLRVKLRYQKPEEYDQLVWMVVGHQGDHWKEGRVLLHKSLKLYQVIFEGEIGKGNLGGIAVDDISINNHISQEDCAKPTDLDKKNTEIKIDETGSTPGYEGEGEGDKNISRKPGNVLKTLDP

[2] = molecular target: T1, C-terminal His tagged mouse NRP1 (5994-N1, R&D systems) (mouse); assay: SPR; Pioneer SensiQ; mouse NRP1 immobilised on a PCH chip in 10 mM sodium acetate pH 5.0 (2307 RU for mouse SEMA3A Fc, 1565 RU for human SEMA3A Fc); running buffer 20 mM HEPES pH 7.5, 150 mM NaCl, 0.005% Tween-20; OneStep kinetics, analyte 100 nM mouse SEMA3A Fc or 50 nM human SEMA3A Fc, 75 μl/min; both purified

- binding [1]: binds
- binding [2]: binds
B1: recombinant human full length SEMA3A Fc (huSEMA3A, Lys26-Val771) (Fc fusion, UniProt Q14563 26-771)
chain: KNNVPRLKLSYKEMLESNNVITFNGLANSSSYHTFLLDEERSRLYVGAKDHIFSFDLVNIKDFQKIVWPVSYTRRDECKWAGKDILKECANFIKVLKAYNQTHLYACGTGAFHPICTYIEIGHHPEDNIFKLENSHFENGRGKSPYDPKLLTASLLIDGELYSGTAADFMGRDFAIFRTLGHHHPIRTEQHDSRWLNDPKFISAHLISESDNPEDDKVYFFFRENAIDGEHSGKATHARIGQICKNDFGGHRSLVNKWTTFLKARLICSVPGPNGIDTHFDELQDVFLMNFKDPKNPVVYGVFTTSSNIFKGSAVCMYSMSDVRRVFLGPYAHRDGPNYQWVPYQGRVPYPRPGTCPSKTFGGFDSTKDLPDDVITFARSHPAMYNPVFPMNNRPIVIKTDVNYQFTQIVVDRVDAEDGQYDVMFIGTDVGTVLKVVSIPKETWYDLEEVLLEEMTVFREPTAISAMELSTKQQQLYIGSTAGVAQLPLHRCDIYGKACAECCLARDPYCAWDGSACSRYFPTAKRRTRRQDIRNGDPLTHCSDLHHDNHHGHSPEERIIYGVENSSTFLECSPKSQRALVYWQFQRRNEERKEEIRVDDHIIRTDQGLLLRSLQQKDSGNYLCHAVEHGFIQTLLKVTLEVIDTEHLEELLHKDDDGDGSKTKEMSNSMTPSQKVWYRDFMQLINHPNLNTMDEFCEQVWKRDRKQRRQRPGHTPGNSNKWKHLQENKKGRNRRTHEFERAPRSV
